Variants at the background level are over-represented here.
B1: tRNA (parent)
chain: GUUCCGUUGGCGUAAUGGUAACGCGUCUCCCUCCUAAGGAGAAGACUGCGGGUUCGAGUCCCGUACGGAACG

Variants of: B1
Test: yeast fitness relative to wild type (ratio to wild type); higher = fitter; tRNA-Arg(CCU), competitive growth, 37 C, YPD
Outline: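 For this measurement, the tRNA-Arg(CCU) gene was varied by chemical synthesis at a 3% per-site mutation rate across 69 sites, and each variant was placed at the native genomic locus in Saccharomyces cerevisiae. The pooled strains went through a 24-hour competition in YPD at 37°C in six parallel replicates, with amplicons from start and end populations read by 100-nucleotide paired-end sequencing. Darwinian fitness relative to wild type followed from the change in each genotype's frequency. Genotypes needed ≥ 100 starting reads, and estimates < 0.5 were set to 0.5.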

Question: Which yeast fitness does the source give for GUUCCGUUGGCGUAAUGGUGACGCGUCUCCCUCCUUAGGAGAAGACUGCGGGUUGGAGUCCCGUACGGAACG [A20G A36U C55G] here?
Answer: ≤ 0.5

Question: With GUUCCGUUGGCGUAAUGGUAACGCGUCUCCCUCCUAAGGAGAAGACUGCGGGUUCGUGUCCCGUACGUAGCG [A57U G68U A70G] as the variant, how does the yeast fitness read?
Answer: ≤ 0.5

Question: With GUUCUGUUGGCGUAAUGGUAACGCGUCUCCCUCCUAAGGAGAACACUGCGGGUUCGAGUCUCGUACGGAACG [C5U G44C C61U] as the variant, how does the yeast fitness read?
Answer: 0.702

Question: With GUUCCGUUGGCGUAAUGGUAACGCGUCUACCUCCAAAGGAGAAGACUGCGGGUUAGAGUCCCGUAUGGAACG [C29A U35A C55A C66U] as the variant, how does the yeast fitness read?
Answer: ≤ 0.5

Question: For GUUCCGUUGGCGUAAUGGUAGCGCGUCUCCCUCCUAAGGAGAAGACCGUGGGUUCGAGUCCAGUACGGAACG [A21G U47C C49U C62A], which yeast fitness is on record?
Answer: ≤ 0.5

Question: With GUUCCGUUGGCGUAGUGGUGACGCGUAUCCCUCCUAAGGGGAAGCCUGCGGGUUCGGGUCCCGUACGGAACG [A15G A20G C27A A40G A45C A57G] as the variant, how does the yeast fitness read?
Answer: ≤ 0.5

Question: For GUUCCGUUGGCGUUAUGGUAACGCGUCUCCCUCCUAAGGAGAAAACUGCGGGUUCGAGUCCCGUACGGAGCG [A14U G44A A70G], which yeast fitness is on record?
Answer: ≤ 0.5

Question: With GUUCUGUUGGGGUAAUGGUAACGCGUCUACCUCCUAAGGAGAAGAAUGCGGGUUCGAGUCCCGUACGGAACG [C5U C11G C29A C46A] as the variant, how does the yeast fitness read?
Answer: ≤ 0.5

Question: For GUUCCGUUGGCGUAGUGGUAACGCGACUCCCUCCUAAGGAGAAGACUGCGGGUUCGAGUCCCGUACGGAACG [A15G U26A], which yeast fitness is on record?
Answer: 1.04

Question: For GUUCCGUUGGCGUAACGGUAACGCGACUCCCUCCUAACGAGAAGACUGCGGGUUCAAGUCCCGUACGGAACG [U16C U26A G38C G56A], which yeast fitness is on record?
Answer: ≤ 0.5

Question: Which yeast fitness does the source give for GUUCCGUUGGCGUAAUGGUAACGCGUCUCCCUCCAAAGGAGAAGACUGCGGGUUCGAGUGCGGUACGAAACG [U35A C60G C62G G68A] here?
Answer: ≤ 0.5

Question: Which yeast fitness does the source give for GUUCCGUUGGCGUAAUGGUAACGCGUCUCCCUCCUAAGGAGACGACUGCGGGUUCGAGUCCCGGACGGAACG [A43C U64G] here?
Answer: 0.618

Question: Which yeast fitness does the source give for GUUCCGUUGGCGUAAUGGUAAUGCCUCCCCCUCCUGAGGAGAAGACUGCGAGUUCGAGUCCCGUACAGAACG [C22U G25C U28C A36G G51A G67A] here?
Answer: ≤ 0.5

Question: Which yeast fitness does the source give for GUUCCGUUGGCGCAAUGGUAACGCGUCUGCCUCCUAAGGAGAAGACUGCGGGUUCGAGAGCUGUACGGAACG [U13C C29G U59A C60G C62U] here?
Answer: ≤ 0.5

Question: Which yeast fitness does the source give for GUUCCGUUGGCGUGAUGGUAACGCGUCUGCUUCCUAAGGAGAAGACUGCGGGUUCGAGCCCCGUACGGACCG [A14G C29G C31U U59C A70C] here?
Answer: ≤ 0.5

Question: For GUUCCGUUGGCGUAAUGGUAACGCGCCUCCCUGCUAAGGAGAAGGCUGCGGGUUCGAGUCCCGUACGGAACG [U26C C33G A45G], which yeast fitness is on record?
Answer: ≤ 0.5

Question: For GUUCCGUUGGCGUAAUGGUAACGCGUCUCCCUCCUAAGGAGAAGGCUGCGGGUUCGAGCCCCGUACGGAACG [A45G U59C], which yeast fitness is on record?
Answer: 1.03

Question: Which yeast fitness does the source give for GUUCCGUUGCCGUAAUGGUAACGCGUCUCCCUCCUAAGGAGAAGACGGCGGGUUCGAGUCCUGUUCGGAACG [G10C U47G C62U A65U] here?
Answer: ≤ 0.5

Question: Which yeast fitness does the source give for GUUCGGUUGGCGGAAUGGUAACGCGUCUACCUCCUAAGGAGAAGACUGCGGGUUCGAGUCCCGUACGGAACG [C5G U13G C29A] here?
Answer: ≤ 0.5

Question: For GUUCCGUUGGUGUAAUGGUAACGCGUCUCUCUCCUAAGGAGAACACUGCGAGUUCGAGUCUCGUACGGAACG [C11U C30U G44C G51A C61U], which yeast fitness is on record?
Answer: ≤ 0.5

Question: For GUUCCGUUGGAGUAAUGGUAACCCGUCUCCCGCAUAAGGAGAAGACUGCGGAUUCGAGUCCCGUACGGAACG [C11A G23C U32G C34A G52A], which yeast fitness is on record?
Answer: ≤ 0.5

Question: For GUUCCGUUGGCGUAAUGGUAACGCGUCUCCUUCCUAGGGAGAAGACCGCGGGUUCGAGUCCCAUACGGAACG [C31U A37G U47C G63A], which yeast fitness is on record?
Answer: ≤ 0.5

Question: With GUUCCGUUGGCGUAAUGGUAACGCGUUUCCCUCCUAAGGAGAAGCCUGCGGGUUCGAGUCCCAUACGGAACG [C27U A45C G63A] as the variant, how does the yeast fitness read?
Answer: 0.68

Question: For GUUCCGUUGGCGUAAUGGUAACGCGUCUCCCUCCUAAGGAGAAAACUACCGGUUCGAGUCCCGUACGGAACG [G44A G48A G50C], which yeast fitness is on record?
Answer: ≤ 0.5

Question: With GUUCCGUUCGCGGAAUGGUAACGUGUCUCCCUCCUAAGGAGAAGACUGCGCGUUCGAGUCCCGUACGGAACG [G9C U13G C24U G51C] as the variant, how does the yeast fitness read?
Answer: ≤ 0.5

Question: Which yeast fitness does the source give for GUUCCGUUGGCGUAAUGGUAACGGGUCUCCCUCCCAAGGAGAAGACUGUGGGUUCGAGUCCCGUACGGAACG [C24G U35C C49U] here?
Answer: ≤ 0.5

Question: For GUUCCGUUGGCGUAAUGGUAACGCCUCUCCGUCCUAAGGAGAAGACUGCGGGUUCGAGUCGCGUAGGGAACG [G25C C31G C61G C66G], which yeast fitness is on record?
Answer: 0.674

Question: With GUUCAGUUGGCGUAAUGGUCACGCGUCUCCCUCCUAAGGAGAAGACUGCGGGUUCGAGUCCCGUACGAAACG [C5A A20C G68A] as the variant, how does the yeast fitness read?
Answer: ≤ 0.5

Question: With GUUCCGUUGGCGUAAUGCUAACGCGUCUUCCUCUUAGGGAGAAGACUGCGGGUUCGACUCCCGUACGGAACG [G18C C29U C34U A37G G58C] as the variant, how does the yeast fitness read?
Answer: ≤ 0.5

Question: With GUUGCGUUGGCGUAAUGGUAGCGCGUCUCCCUCUUAAGGAGAACACUGCGGGUUGGAGUCACGUACGUAACG [C4G A21G C34U G44C C55G C61A G68U] as the variant, how does the yeast fitness read?
Answer: ≤ 0.5

Question: Which yeast fitness does the source give for GUUCCGUUGGCGUACUGGUGAAUCGUCUCCCUCCUAACGAGAAGACUGUGGGUUCGAGUCCCGUACGGAACG [A15C A20G C22A G23U G38C C49U] here?
Answer: ≤ 0.5

Question: For GUUCCGAUGGCGUAAUGGUGACGCGUCUCCCUCCUAAGGAGAAGACUGCGGGUUCGAGUCCCGUACGGAGCG [U7A A20G A70G], which yeast fitness is on record?
Answer: ≤ 0.5

Question: For GUUCCGUUGGCGUUAUGGUAACGCGUCUCCCUCCUAAGAAGAAGACUGCGGGUUCGAGUCCCAUACGGAACG [A14U G39A G63A], which yeast fitness is on record?
Answer: ≤ 0.5

Question: Which yeast fitness does the source give for GUUCCGAUGGCGUAAUGGUAACGCGUCUCCCUACUAAGGAGAAGACUGCGGGUUCGGGUCCCGUACGGAACG [U7A C33A A57G] here?
Answer: ≤ 0.5

Question: Which yeast fitness does the source give for GUUCCGUUGGCGUAAAGGUAACGCGUCUCCCUCCUAAGAAGGAGACUGCGGGUUAGAGUCCAGUACGGAACG [U16A G39A A42G C55A C62A] here?
Answer: ≤ 0.5

Question: For GUUCCGUUGGCGUAAUGGAAACGCGUCUCCAUCCUAGGGAGAAGACUGCGGGUUCGAGUCCCGUGCGGAACG [U19A C31A A37G A65G], which yeast fitness is on record?
Answer: ≤ 0.5

Question: With GUUCCGUUGGCGUAAUGGUAGCGCGUCUCCCUCCUAAGGAGAAGACUGCGGGUUCGAGACGCGUACGGAACG [A21G U59A C61G] as the variant, how does the yeast fitness read?
Answer: ≤ 0.5

From the RNAGym collection of RNA variant scans (doi:10.1126/science.aae0568)
